PubChem BioAssay AID1487 (National Center for Advancing Translational Sciences (NCATS), 2009)
The list shows a part of the results. The main result of the screen is listed elsewhere. These columns were measured beside it and carry no call. Compounds called inactive in the main read-out are mostly missing here. Potencies come from curve fits of mixed quality, noted in brackets.

Assay: qHTS Assay for Modulators of Lamin A Splicing
Settings: HeLa LMNA splicing GFP/RFP minigene ratio, 48 h
Procedure, shortened: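 Read-out is the ratio of GFP to DsRed2 object intensity, acquired by 488 nm laser-scanning cytometry on HeLa lamin A-EGFP minigene reporter cells. Compound incubation 48 hrs at 37 °C in Opti-MEM with 2% FBS; DMSO 0.5% final.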

[1] = measured here: RFP viability control channel
[2] = measured here: GFP splicing reporter channel

Structure (SMILES) | AC50 [1] | AC50 [2]
Cc1cc(C)n(CC(O)Cn2c3ccc(Cl)cc3c3cc(Cl)ccc32)c(=O)n1 (configuration not stated) | 12.6 µM [rising, single point] | –
CCOC(=O)C1(Cc2ccccc2)CCN(Cc2cccn2-c2cccnc2)CC1 | – | 0.00447 µM [rising, full curve, poor fit]
CC1(C)NC(=O)N(CCCCSc2ccc(Cl)cc2)C1=O | 10 µM [rising, partial curve] | –
Cc1ccc(NS(=O)(=O)c2cc(C(=O)NCCSc3ccc(C)cc3)ccc2C)cc1 | 20 µM [falling, single point] | 12.6 µM [falling, partial curve, poor fit]
Cc1ccc(Cc2c(C)nc3nc(SCC(=O)NCc4ccco4)nn3c2C)cc1 | 4.47 µM [falling, full curve] | 4.47 µM [falling, full curve]
Cn1c(SCC(=O)N/N=C/c2ccc([N+](=O)[O-])s2)nnc1-c1ccccc1 | 31.6 µM [rising, single point] | –
COc1ccc(NC(=O)N2CCN(c3cccc(C(F)(F)F)c3)CC2)cc1 | 1.12 µM [rising, full curve, poor fit] | –
CC1=NN(C(=O)COc2ccccc2)C(O)(c2cccnc2)C1 (configuration not stated) | – | 0.112 µM [rising, single point]
Cc1ccc(NC(=O)CSc2nc3ccccc3c3nc(CCn4cncc4C)nn23)c(C)c1 | – | 0.00891 µM [falling, full curve]
CN(C1CCCCC1)S(=O)(=O)c1ccc(NC(=O)C2CCCCC2)cc1 | 14.1 µM [rising, partial curve, poor fit] | 0.316 µM [rising, full curve, poor fit]
Oc1c(C(c2ccc(Br)cc2)N2CCOCC2)sc2nc(-c3ccco3)nn12 (configuration not stated) | 1.26 µM [falling, full curve, poor fit] | –
O=C(NCc1ccc(F)cc1)C(=O)NCC1OCCN1S(=O)(=O)c1cccs1 (configuration not stated) | – | 0.282 µM [falling, full curve, poor fit]
Cc1ccc2c(c1)c1c(n2CC(O)Cn2nc(C)c(Br)c2C)CCCC1 (configuration not stated) | 20 µM [falling, single point] | 35.5 µM [falling, single point]
COCCOC(=O)c1c(C)nc(SCC(=O)Nc2ccc(C)cc2)c(C#N)c1-c1ccco1 | 22.4 µM [rising, single point] | –
CCC(OCC(O)CN1CCN(CCN2C(=O)c3cccc4cccc(c34)C2=O)CC1)c1ccccc1 (configuration not stated) | 3.55 µM [falling, partial curve] | 5.62 µM [falling, partial curve]
COc1ccc(CN(C(=O)CSc2nnc(-c3c[nH]c4ccccc34)o2)c2ccc(F)cc2)cc1OC | 31.6 µM [falling, single point] | –
Cc1c(-c2cc[n+]([O-])cc2)oc2ccc(Br)cc2c1=O | 1.78 µM [rising, full curve, poor fit] | –
COC(=O)CSC1=C(C#N)C(c2cccc(F)c2)CC(=O)N1 (configuration not stated) | 35.5 µM [falling, single point] | 35.5 µM [falling, single point]
CCOC(=O)c1cnc(-c2ccccc2)nc1Oc1ccc(OC)cc1 | 35.5 µM [rising, single point] | –
CC1(C)CC(=O)C(C(C2=C(O)CC(C)(C)CC2=O)c2ccc(O)c([N+](=O)[O-])c2)=C(O)C1 | 0.501 µM [falling, full curve, poor fit] | –
CCc1cc(/C(Cc2cscn2)=N\O)c(O)cc1O | 20 µM [rising, single point] | –
O=c1c(-c2ccccc2)nc2cnc(Oc3cccc(Cl)c3)nc2n1C1CC1 | – | 14.1 µM [falling, partial curve]
CCc1nnc(NS(=O)(=O)c2ccc(NC(=S)NC(=O)/C=C/c3ccc(C(C)C)cc3)cc2)s1 | 0.0316 µM [falling, single point] | 0.0398 µM [falling, single point]
Cc1nc(-c2ccc(Cl)cc2)sc1C(=O)O | – | 0.447 µM [rising, full curve, poor fit]
O=C(c1cc(-c2ccco2)on1)N1CCN(c2ccccc2)CC1 | 17.8 µM [rising, single point] | –
Cc1cc(C)nc(Nc2n[nH]c(C)n2)n1 | 0.0112 µM [rising, full curve, poor fit] | –
CCOc1ccc(Cc2n[nH]c(=S)n2Cc2ccccc2)cc1 | 31.6 µM [rising, single point] | –

Structure (SMILES) | AC50 [1] | AC50 [2]
Cc1ccc(N=c2c([N+](=O)[O-])nn(-c3ccc4c(c3)OCCO4)n2O)c(Cl)c1 | 10 µM [falling, partial curve] | 10 µM [falling, partial curve]
O=C(NC(=S)Nc1ccccc1O)c1ccc(-c2ccc(Cl)cc2)o1 | 17.8 µM [rising, single point] | –
CCOC(=O)C(CC)Sc1ccc2nnc(CCNS(=O)(=O)c3ccccc3)n2n1 (configuration not stated) | – | 20 µM [rising, partial curve, poor fit]
Cc1nnn(C23CC4CC(CC(CC(=O)Nc5ccc(C)c(C)c5)(C4)C2)C3)n1 | 35.5 µM [rising, single point] | –
Cc1ccc(N2C(=O)c3ccccc3NC2C(C)Cc2ccc3c(c2)OCO3)cc1 (configuration not stated) | 35.5 µM [rising, single point] | –
Cc1ccc(C(=O)CC(SCC(=O)O)c2ccc([N+](=O)[O-])cc2)cc1 (configuration not stated) | 14.1 µM [falling, partial curve] | 0.0891 µM [falling, full curve, poor fit]
COc1ccc(CC(=O)NC(C)c2nnc(SCC(=O)Nc3ccccc3F)n2C)cc1 (configuration not stated) | – | 4.47 µM [rising, partial curve, poor fit]
O=C(Nc1ccc(Br)cc1)c1ccc(Br)c(S(=O)(=O)N2CCCCC2)c1 | 0.00501 µM [falling, full curve, poor fit] | 0.00355 µM [falling, full curve, poor fit]
O=C(O)CCn1c(CO)nc2ccccc21 | 14.1 µM [rising, partial curve] | 7.94 µM [rising, partial curve]
Cc1c(CCOC(=O)C23CC4CC(CC(C4)C2)C3)sc[n+]1Cc1ccccc1 | 22.4 µM [rising, partial curve] | 11.2 µM [rising, partial curve]
O=C(/C=C/c1cccc([N+](=O)[O-])c1)NCCSCc1ccccc1Cl | 12.6 µM [rising, partial curve] | –
CCOc1cc(C2C(C#N)=C(N)OC(C)=C2C(C)=O)c(Br)c(Br)c1OC(C)C (configuration not stated) | 31.6 µM [falling, single point] | 35.5 µM [falling, single point]
CCN(CC)C(=O)Oc1ccc(Br)c2ccccc12 | 35.5 µM [rising, single point] | 35.5 µM [rising, single point]
Cn1c(=O)n(CCc2ccccc2)c(=O)c2c1ncn2Cc1ccccc1 | – | 22.4 µM [rising, single point]
COC(=O)c1c(C)[nH]c(C(=O)C(C)Sc2nnc(-c3cc(OC)c(OC)c(OC)c3)o2)c1C (configuration not stated) | 12.6 µM [rising, single point] | –
CCn1c(COc2ccccc2)nnc1SCC(=O)C(C)(C)C | 17.8 µM [rising, single point] | –
COc1ccc(N(CC(=O)N/N=C/c2ccc3c(c2)OCO3)S(=O)(=O)c2ccc(NC(C)=O)cc2)cc1 | – | 12.6 µM [falling, single point]
COc1ccc2cc3cc(C(=O)NCCc4ccccc4)sc3nc2c1Cl | 35.5 µM [falling, partial curve, poor fit] | 11.2 µM [falling, partial curve, poor fit]
Cc1ccc(NC(=O)CCNC(=O)c2ccc([N+](=O)[O-])cc2)cc1S(=O)(=O)N(C)C | – | 0.316 µM [falling, full curve, poor fit]
Cc1nc2cc(C(=O)NCc3ccc4c(c3)OCO4)ccc2n1-c1ccc(Br)cc1 | 1.26 µM [rising, partial curve, poor fit] | –
CC(C)n1c(O)c(N=Nc2ccccn2)c2ccccc21 | 3.16 µM [rising, full curve] | –
CCOc1ccc(NC(=O)CSc2nc3cccnc3n2CC)cc1 | 35.5 µM [rising, partial curve, poor fit] | –
Cc1ccc(NC(=O)/C=C/c2ccc3c(c2)OCO3)cc1S(=O)(=O)N1CCOCC1 | 15.8 µM [rising, partial curve] | 25.1 µM [rising, single point]
CCN1CCCc2cc(CN(CCN3CCOCC3)C(=S)Nc3ccccc3C)ccc21 | 0.00355 µM [falling, full curve, poor fit] | –
Cc1ccc(S(=O)(=O)N2CCN(c3c([N+](=O)[O-])cc(C(F)(F)F)cc3[N+](=O)[O-])CC2)cc1 | 12.6 µM [rising, partial curve] | 7.94 µM [rising, partial curve]
CN(c1ccc(OCC(=O)N2CCCCC2)cc1)S(=O)(=O)c1cccs1 | 25.1 µM [rising, single point] | 25.1 µM [rising, single point]
COc1ccc(C)cc1N(C(=O)COc1cccc(F)c1)c1nc2ccccc2s1 | 11.2 µM [rising, partial curve, poor fit] | –

Individual results from the entries so far:
Value for CC1=NN(C(=O)COc2ccccc2)C(O)(c2cccnc2)C1 (configuration not stated) under AC50 [2]: 0.112 µM [rising, single point]
Value for CC1(C)CC(=O)C(C(C2=C(O)CC(C)(C)CC2=O)c2ccc(O)c([N+](=O)[O-])c2)=C(O)C1 under AC50 [1]: 0.501 µM [falling, full curve, poor fit]
